Assay results as given in article doi:10.1101/296376.
No constants are given. Whether binding was seen depends on the method and setting. Binding seen in cells or lysates may run through a third protein. Here binding means that the protein was enriched with, or labelled near, the bait; the list need not be complete.

Amino acid sequences for entries named in this document (tags omitted). Residues count along the entry.
UniProt Q96H55, residues 824-970: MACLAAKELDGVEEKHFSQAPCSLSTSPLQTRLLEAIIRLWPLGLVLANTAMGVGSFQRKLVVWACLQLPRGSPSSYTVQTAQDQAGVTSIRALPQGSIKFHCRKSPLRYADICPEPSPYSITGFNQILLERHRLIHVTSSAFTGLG
UniProt Q8IXI2: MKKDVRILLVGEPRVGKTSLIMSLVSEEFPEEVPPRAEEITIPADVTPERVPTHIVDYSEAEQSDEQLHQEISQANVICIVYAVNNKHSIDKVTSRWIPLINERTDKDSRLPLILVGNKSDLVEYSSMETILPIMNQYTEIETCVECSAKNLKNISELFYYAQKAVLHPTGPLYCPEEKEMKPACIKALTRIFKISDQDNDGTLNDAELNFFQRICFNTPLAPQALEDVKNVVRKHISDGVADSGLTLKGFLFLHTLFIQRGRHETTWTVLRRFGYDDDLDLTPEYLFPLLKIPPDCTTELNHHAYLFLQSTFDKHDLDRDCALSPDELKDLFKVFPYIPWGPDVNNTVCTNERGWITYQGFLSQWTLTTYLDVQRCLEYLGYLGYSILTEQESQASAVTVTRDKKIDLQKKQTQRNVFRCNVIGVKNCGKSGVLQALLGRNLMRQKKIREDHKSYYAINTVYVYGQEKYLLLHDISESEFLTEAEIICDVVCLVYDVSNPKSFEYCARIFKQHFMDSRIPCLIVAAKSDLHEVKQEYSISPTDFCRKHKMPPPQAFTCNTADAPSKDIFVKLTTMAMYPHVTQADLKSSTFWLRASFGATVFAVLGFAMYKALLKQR

Target: myc-BirA*-Myo19 tail (human) (UniProt Q96H55)
Assay: proximity labelling

binding: binds
Substance: Miro-1 (from UniProt Q8IXI2 1-618)
